Measurements reported in article PMC12040169 (PLOS Biology, 2025).
Some of the results follow.

system: T1, CTL2-GFP (C. trachomatis L2/434/Bu, GFP-expressing); parameters: species or system HeLa; Intracellular C. trachomatis growth in HeLa cells, bulk GFP fluorescence relative to DMSO; conditions: bulk GFP, single well; 28.5 h, 10 µM; inhibitor
T1 construct: L2/434/Bu, GFP-expressing

Compound | % of control remaining
O=C(c1cc2ncc(Br)cn2n1)N1CCOCC1 [CBK058513] | 144.322%
Cc1ccc(NC(=O)COc2ccccc2)c(NC(=O)c2ccccc2I)c1 [CBK266793] | 116.241%
Fc1ccc2nc(Nc3nnc(-c4ccco4)o3)sc2c1 [CBK287488] | 138.907%
COCCCOc1nccnc1NC(C)C [CBK115876] | 173.203%
O=C(Cn1ncn2c(cc3ccsc32)c1=O)N1CCCCC1 [CBK284195] | 85.8303%
COc1ccc(NC(=O)c2cc(C(F)(F)F)cc(C(F)(F)F)c2)cn1 [CBK057634] | 121.144%
CCN(CC)C(=O)C1CCCN(C(=O)NCCCN2CCN(C)CC2)C1 (centres unmarked) [CBK156115] | 145.065%
COc1ccc(CC(CC(=O)O)C(=O)Nc2ccc(OC)cc2)cc1 (centres unmarked) [CBK286975] | 107.051%
COCCNc1nccnc1-c1ccsc1 [CBK038008] | 116.018%
O=C1c2ccc(Oc3cccc(Oc4ccc5c(c4)C(=O)N(c4ccccn4)C5=O)c3)cc2C(=O)N1c1ccccn1 [CBK261397] | 100%
O=C(N1CCCCCC1)N1CCN(S(=O)(=O)N2CCOCC2)CC1 [CBK268681] | 135.297%
COc1ccc(Nc2nc(-c3cccc(N)c3)cnc2N)cc1 [CBK063585] | 195.33%
COc1cc(CNc2cc(-c3ccsc3)ncn2)cc(OC)c1OC [CBK037794] | 182.524%
CSc1nsc(SCC(=O)Nc2cccc(NC(C)=O)c2)n1 [CBK269833] | 98.5602%
O=C(C1CC1)N1CCC(Cn2nc(-c3ccccc3)ccc2=O)CC1 [CBK284115] | 113.904%
O=S1(=O)CC(NCc2ccccc2)C(Nc2ccccc2)C1 (centres unmarked) [CBK265797] | 179.686%
O=c1cc2nc(-c3ccccc3F)[nH]c(=S)n2[nH]1 [CBK288402] | 135.469%
N#Cc1cccc(C(=O)NCCc2cn3c(n2)CCCC3)c1 [CBK305046] | 90.5695%
COc1ccc(N(C(C)C(=O)N/N=C2\C(=O)Nc3ccccc32)S(C)(=O)=O)cc1 (centres unmarked) [CBK262408] | 119.307%
CC(=O)N1CCCCC[C@@H]2[C@@H]1C[C@@H](Cc1ccccc1)N2C(=O)c1ccccc1 [CBK285576] | 97.5379%
Cn1cc(C(=O)NC2CCN(c3ccc(C#N)cc3F)CC2)cn1 [CBK304939] | 132.019%
CN(C)c1ccc(-c2cncc(NCc3ccc4c(c3)OCO4)n2)cc1 [CBK037190] | 108.355%
Cc1ccc(-c2cncc(N3CCCC3CO)n2)cc1C (centres unmarked) [CBK065945] | 182.077%
N#Cc1cnn(-c2ccc(Cl)cc2Cl)c1N [CBK086125] | 125.68%
COc1ccc(Br)c(C(CO)N(C)C(=O)Cc2cnccc2C)c1 (centres unmarked) [CBK306267] | 114.481%
O=P(O)(COc1ccccc1)COc1ccccc1 [CBK261620] | 119.446%
Cc1nccn1CCC(=O)N1CCc2[nH]c3ccccc3c2C1 [CBK281882] | 111.337%

Of the compounds above, 2 contain an NH in an aromatic ring:
Compound | % of control remaining
O=c1cc2nc(-c3ccccc3F)[nH]c(=S)n2[nH]1 [CBK288402] | 135.469%
Cc1nccn1CCC(=O)N1CCc2[nH]c3ccccc3c2C1 [CBK281882] | 111.337%

The list continues.

Compound | % of control remaining
CC(C)Cn1cncc1CNS(=O)(=O)c1cccc(C(=O)N2CCC2)c1 [CBK307068] | 115.471%
CCCCc1c(Cl)nc(C#N)c2c1CCCC2 [CBK020252] | 124.462%
CSc1nsc(SCc2cnc(C)nc2N)n1 [CBK268337] | 112.758%
CN1C(=O)COc2ccccc2C/C=C/C[C@H]2CN(C(=O)C3CCC3)CC[C@H]21 [CBK292087] | 111.843%
CCOC(=O)N1CCN(Cc2ccc(OCc3cccnc3)cc2)CC1 [CBK305883] | 120.535%
CC(C)c1ccc(/C=C/C(=O)NCCN2CCOCC2)cc1 [CBK149631] | 100%
CN1CCN(S(=O)(=O)c2ccccc2Br)CC1 [CBK062435] | 94.8446%
Cc1noc(C)c1NC(=O)c1c(-c2ccccc2)noc1C [CBK200314] | 148.56%
COc1ccc2[nH]cc(C(=O)NCCn3nc(C)c(C)c3C)c2c1 [CBK281389] | 117.455%
CCOC(=O)c1ccc(/N=C2/NC(=O)/C(=C\c3ccccc3OCC(=O)O)S2)cc1 [CBK265658] | 99.1252%
Cc1nc2c(C(=O)NCCCOC(C)C)cnn2c(C)c1Cc1cccc(Cl)c1 [CBK162043] | 144.569%
Cc1cccc(-c2ncc(NC(=O)Cc3ccc(OC(F)(F)F)cc3)nc2-c2cccnc2)c1 [CBK037030] | 119.761%
Cc1ccc(C)c(C2CCCN2C(=O)Cn2cccc(C(=O)NCc3ccccc3)c2=O)c1 (centres unmarked) [CBK286062] | 124.932%
COc1cc(N)c2ncccc2c1 [CBK011972C] | 0%
O=[N+]([O-])c1ccccc1CN1CCC(N2CCCCC2)CC1 [CBK261852] | 101.984%
Nc1ncncc1-c1noc([C@@H]2CCCN2C2CCOCC2)n1 [CBK288932] | 123.377%
COc1cccc(COc2cncc(Cl)n2)c1OC [CBK176057] | 128.246%
Cc1ccnc(SCC(=O)N2CCc3ccccc3C2)n1 [CBK288218] | 119.466%
CCOC(=O)c1ccc(-c2ccc(/C=C/c3nn4cnnc4c(O)c3[N+](=O)[O-])o2)cc1 [CBK268409] | 117.402%
Cc1cc(CN2CCC(C(=O)c3ccc(F)cc3)CC2)no1 [CBK149121] | 100%
CC(C)[C@@H](CO)Nc1cc(Cl)nc2ccnn12 [CBK037242] | 157.505%
O=C1C2CCCCC2C(=O)N1c1ccc(Oc2ccc(Br)cc2)cc1 (centres unmarked) [CBK263531] | 78.468%
O=C(NCCc1cccs1)Nc1cccc(SC(F)(F)F)c1 [CBK044999] | 102.945%
Cc1ccc(Cc2cnc(NC(=O)C3CCOCC3)s2)cc1F [CBK306130] | 133.843%
COc1cccc(CNC23CC4CC(CC(C4)C2)C3)c1OCc1ccccc1 [CBK268873C] | 106.386%
O=C(Nc1cc2nn(-c3ccccc3)nc2cc1Cl)c1ccc(-c2cccc([N+](=O)[O-])c2)o1 [CBK266271] | 206.392%

2 entries from above, as comma-separated lines.
Compound,% of control remaining
O=C1C2CCCCC2C(=O)N1c1ccc(Oc2ccc(Br)cc2)cc1 (centres unmarked) [CBK263531],78.468%
O=C(NCCc1cccs1)Nc1cccc(SC(F)(F)F)c1 [CBK044999],102.945%
